In PMC7819943, “Rice protein-binding microarrays: a tool to detect cis-acting elements near promoter regions in rice”:
The list shows a part of the results.

Chains of the proteins cited; added tags and fusions are not shown.
UniProt Q0JBA9, entry or part of it: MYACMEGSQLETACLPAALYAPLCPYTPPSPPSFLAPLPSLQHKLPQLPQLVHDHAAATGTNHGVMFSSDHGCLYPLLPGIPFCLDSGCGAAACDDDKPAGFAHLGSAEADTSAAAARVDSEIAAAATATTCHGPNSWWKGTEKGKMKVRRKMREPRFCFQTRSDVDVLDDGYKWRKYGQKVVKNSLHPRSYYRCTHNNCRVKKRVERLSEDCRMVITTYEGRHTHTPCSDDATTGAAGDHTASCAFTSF

What follows are sequences tested against OsWRKY34 (Oryza sativa, UniProt Q0JBA9 1-250) (assay: protein-binding microarray (RPBM); PBS, 2% BSA, 51.3 ng/ul salmon testes DNA, 50 uM zinc acetate, 200 nM TF, 25 C, 1 h; high values mean tight binding). Settings: protein: recombinant; tags: N-terminal polyhistidine and DsRed monomer fusion (pET32a); label: CyDye5-dUTP incorporated in the synthesized complementary strand; 3' TTTTT single-stranded linker to array surface; dsDNA, one strand shown.
How it was run: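 Polyhistidine-tagged DsRed fusions of transcription factors, joined at the N-terminus, were expressed in E. coli BL21-CodonPlus and isolated on Ni–NTA. They were incubated at 200 nM for 1 h at 25 °C on a custom Agilent array, double-stranded and BSA-blocked, in PBS with 2% BSA, salmon testes DNA and 50 µM zinc acetate. The binding signal is per-feature fluorescence intensity (arbitrary units) read on an Axon 4000B scanner after washing.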

Sequence | binding signal
AGTTATTTTTTATATTTAATACTTCATACATGTGTCTATACGGAGTCACCTAGTGCAG | 10100 fluorescence intensity (a.u.)
TACTCTAAACCAATTTACCGTACCAATCTCTGAAAAGGATCGGAGTCACCTAGTGCAG | 8270 fluorescence intensity (a.u.)
CGACCCCGACCCCGCCGCCGACTACGCCTGGTCCACGCCCCGGAGTCACCTAGTGCAG | 8240 fluorescence intensity (a.u.)
TCCGGGTCTGTTTTCGTCGGGTCTCGGGTTTCCTTGCTCGCGGAGTCACCTAGTGCAG | 8100 fluorescence intensity (a.u.)
GTGCAATTGGTTTTTTCGTCTATATTTAATGCTCTATATACGGAGTCACCTAGTGCAG | 8030 fluorescence intensity (a.u.)
GTGACCATCGGCTAGATTCCATTGACTTTGTTACATCATTCGGAGTCACCTAGTGCAG | 9770 fluorescence intensity (a.u.)
ATTTACATGGTTTTCAGTTTCTGCATAGTTACATCTTCTACGGAGTCACCTAGTGCAG | 8540 fluorescence intensity (a.u.)
TCCCTCCACACACCTCGTACCTCGATCTCGAAGCTTAATTCGGAGTCACCTAGTGCAG | 8930 fluorescence intensity (a.u.)
TCTTTGTTCTGGATGCAGCTATCCCTTGGGCTTGAGTGCTCGGAGTCACCTAGTGCAG | 8280 fluorescence intensity (a.u.)
CATTTCCATTGCTGCATAACAGGTGTGTGCATGGGTATATCGGAGTCACCTAGTGCAG | 8440 fluorescence intensity (a.u.)
CTGGGTGTGGGTGATGAGTTGGGGTACGTCCCAGGGTCTCCGGAGTCACCTAGTGCAG | 8880 fluorescence intensity (a.u.)
TTTGCCGTTGAAGATTATACAGTACATTCTTTTTGCAACACGGAGTCACCTAGTGCAG | 8300 fluorescence intensity (a.u.)
CAAGCCATCCATTCCATGCATCCATCCATCCATGCATTTGCGGAGTCACCTAGTGCAG | 12700 fluorescence intensity (a.u.)
GGGGTAGGGTTTGCATGCTTGAGTTCATAGGGTACGTCGCCGGAGTCACCTAGTGCAG | 13500 fluorescence intensity (a.u.)
TGATTCTACTTATTATTTATTTAAACATGCTACTATTCATCGGAGTCACCTAGTGCAG | 9600 fluorescence intensity (a.u.)
AAAATCCAATCAAGCCACCCAATTCCATGCTTTTCACTTTCGGAGTCACCTAGTGCAG | 8560 fluorescence intensity (a.u.)
TTCACATAATCGTGCACGTTCCAGATCGGGCTATTGCATTCGGAGTCACCTAGTGCAG | 9060 fluorescence intensity (a.u.)
TTTTAGGTGTATGAACAATTTTTTTTACCCCTTCTCATTTCGGAGTCACCTAGTGCAG | 8120 fluorescence intensity (a.u.)
TCTACTTCCCTCAATCACTCGTTTCTTTTTTATTATTATTCGGAGTCACCTAGTGCAG | 10700 fluorescence intensity (a.u.)
CATGGAATGTTTTCTACTCGTAGCTTGGAATGGTCAAACCCGGAGTCACCTAGTGCAG | 8710 fluorescence intensity (a.u.)
GGCGGCAGGGTCTATTTTTGTAATTTTTTGTGCCGATAGACGGAGTCACCTAGTGCAG | 9630 fluorescence intensity (a.u.)

Sequence | binding signal
ACCACTTAATGCGATCTTATCCTCTCGCTGTCTCGCACTCCGGAGTCACCTAGTGCAG | 11900 fluorescence intensity (a.u.)
TGGTTGGTTTGTTGGGTTCTTTTCCTTTTTTTTGTTTCTTCGGAGTCACCTAGTGCAG | 26700 fluorescence intensity (a.u.)
CAAACCTTCTGTTCAGATCATCTATTTATTATCTTCAGCACGGAGTCACCTAGTGCAG | 8670 fluorescence intensity (a.u.)
GCATATCCAATCATCACCTCTCATATCATTTGTACAATATCGGAGTCACCTAGTGCAG | 10200 fluorescence intensity (a.u.)
GACCATTCTGTTTCGTACAATAGTATTATCTTTTTTTTATCGGAGTCACCTAGTGCAG | 12600 fluorescence intensity (a.u.)
GGCCCTAACCCCACCGACCACCCGCGGCCCTCGTCTTCCTCGGAGTCACCTAGTGCAG | 10200 fluorescence intensity (a.u.)
GGCATATCTGAACTGAGTTCATATCAAGCTTTCAATCTCTCGGAGTCACCTAGTGCAG | 8300 fluorescence intensity (a.u.)
TCAATTATTCAGGGTTTCTTCTGGTTCTTGTCTCGCCATGCGGAGTCACCTAGTGCAG | 8630 fluorescence intensity (a.u.)
CACTATAGATATATGGATGTGTGTTGGTCTTTGATGTAGTCGGAGTCACCTAGTGCAG | 8160 fluorescence intensity (a.u.)
TATATAGCTAGGTACCTCTTCAGGGTTTCTTGGGTTTTGACGGAGTCACCTAGTGCAG | 11300 fluorescence intensity (a.u.)
TATGCTGTTGTATTTTGTTTTTTTATCTCAACTAATATTTCGGAGTCACCTAGTGCAG | 8480 fluorescence intensity (a.u.)
ATCCGATCTCCGGCAGTTTCCCCAAATTTTGTTCGAATATCGGAGTCACCTAGTGCAG | 8810 fluorescence intensity (a.u.)
CTCCCACTGTGACAGTCTCGTCACCGCACCACCTCACCTTCGGAGTCACCTAGTGCAG | 8420 fluorescence intensity (a.u.)
GCGGTTTCTAGGTAAGTTATGAAATTAGTTTTGTCATTCGCGGAGTCACCTAGTGCAG | 9590 fluorescence intensity (a.u.)
ACATTGTTCAGTCCACGTTTGCTTCGGTTCGCTTTTCCGTCGGAGTCACCTAGTGCAG | 11300 fluorescence intensity (a.u.)
GGGTAGGGGTGGTAATTGGGAGGGAATTCCTTCTTTACTTCGGAGTCACCTAGTGCAG | 13100 fluorescence intensity (a.u.)
ACTTTGTCCACGCCATCCTCCAAGTCTCCAAACCTACACACGGAGTCACCTAGTGCAG | 9600 fluorescence intensity (a.u.)
CAAAAACATTCTCAACCTTTTTTTCATTTAGTTAGTACAACGGAGTCACCTAGTGCAG | 8970 fluorescence intensity (a.u.)
GCTTGCCAGCGCGCTACTCCATCCTCTTGCATAAATAACGCGGAGTCACCTAGTGCAG | 10700 fluorescence intensity (a.u.)
GGCGTTCTTCTTGATGTCTCCTTTCTGTCCTTTGGATGGTCGGAGTCACCTAGTGCAG | 10200 fluorescence intensity (a.u.)
CATCACCGTCCTCTGCGCGCATTGATATTGTGTCGTTGGACGGAGTCACCTAGTGCAG | 9540 fluorescence intensity (a.u.)

Sequence | binding signal
CCCGTTGACCCAAATTTTCGTTCTCCTCACCGAGTATAGTCGGAGTCACCTAGTGCAG | 17200 fluorescence intensity (a.u.)
TCTTTGTGTCAAATCGGACTTTCTTTTTTCTTGTTTTTATCGGAGTCACCTAGTGCAG | 10400 fluorescence intensity (a.u.)
ATACCACCATGGAAGCTCATCTCGCTCCGTGTGCCTAGATCGGAGTCACCTAGTGCAG | 8270 fluorescence intensity (a.u.)
GCCCAGCCCAGGCCCACCTTATGTTTTGTTGCATCTCTACCGGAGTCACCTAGTGCAG | 10700 fluorescence intensity (a.u.)
CCCTCCCTGGCCGTCGTGCCCGCCGCTGCTCGCCTTCGGCCGGAGTCACCTAGTGCAG | 10100 fluorescence intensity (a.u.)
GCACACCGCTTTCATGGGCCACACATGCCATATCCTAATTCGGAGTCACCTAGTGCAG | 10700 fluorescence intensity (a.u.)
TAAAGATGTCTTTTGTTGGGTGGGAAATCATTTTCATTTCCGGAGTCACCTAGTGCAG | 13100 fluorescence intensity (a.u.)
CCTTATTTTTGTTATGATAACTAATATGTTCAGTGGTTTTCGGAGTCACCTAGTGCAG | 8510 fluorescence intensity (a.u.)
TGGGTGGTCAAGATTTATGATATTGCGGTTAAAGAATGTGCGGAGTCACCTAGTGCAG | 9290 fluorescence intensity (a.u.)
CGTTTTTGTGTCTTTCATTTGAGGAGGAACTGCGATTCTTCGGAGTCACCTAGTGCAG | 9400 fluorescence intensity (a.u.)
GGAAGATCCAGGCGACGCACAGCACCGGCATCCGGATCCGCGGAGTCACCTAGTGCAG | 9950 fluorescence intensity (a.u.)
TCCACGTACGTACGCCCGACGCCCACCGGTCCGCGTCACGCGGAGTCACCTAGTGCAG | 8120 fluorescence intensity (a.u.)
CCACTCCATCCCGTGTGCCGCCCGCCTCAAAACCAACCGCCGGAGTCACCTAGTGCAG | 9000 fluorescence intensity (a.u.)
ATCTCATCCATCCATTTTCCAAATCAAGGGTACATATCAACGGAGTCACCTAGTGCAG | 9580 fluorescence intensity (a.u.)
CGGCGGGGATGAGGGAGAAGGGCGCGGGGCGACGGCGGCACGGAGTCACCTAGTGCAG | 8090 fluorescence intensity (a.u.)
AGTACTATTCAAAACAATTTTGCTAACGTATTTGTCTACACGGAGTCACCTAGTGCAG | 8970 fluorescence intensity (a.u.)
CTCAAAGTTGGCAACTCTCAAACTCGGTTTATCTCCTTGACGGAGTCACCTAGTGCAG | 8530 fluorescence intensity (a.u.)
TTTTTTGGCTTAATTACAGTTTTTTTGTGTGTTTTTTCCCCGGAGTCACCTAGTGCAG | 10000 fluorescence intensity (a.u.)
CGTCACTTTCTTTCGTTGTTGTTTTTCTCGATAGGCTAATCGGAGTCACCTAGTGCAG | 8990 fluorescence intensity (a.u.)
GCGGGGCGGTGACAACGACGGCGGTGCGGGGCGGTGGTGACGGAGTCACCTAGTGCAG | 10300 fluorescence intensity (a.u.)
TGATTTGGTGAGCTCGAACCATCCGTAAGGTCACCCGTCTCGGAGTCACCTAGTGCAG | 8830 fluorescence intensity (a.u.)

Two entries from above, with each value named:
TGATTCTACTTATTATTTATTTAAACATGCTACTATTCATCGGAGTCACCTAGTGCAG
  binding signal = 9600 fluorescence intensity (a.u.)
AAAATCCAATCAAGCCACCCAATTCCATGCTTTTCACTTTCGGAGTCACCTAGTGCAG
  binding signal = 8560 fluorescence intensity (a.u.)

(listing goes on)

Sequence | binding signal
CCAGTGACTAACACCGACACAGTTCGCGCCAGGTTATAACCGGAGTCACCTAGTGCAG | 8200 fluorescence intensity (a.u.)
GTTTACCAACCACCTGCTCTTCTCGGCCAGTTCGCTGCGGCGGAGTCACCTAGTGCAG | 8680 fluorescence intensity (a.u.)
AATGTTCTATCGTTTCTGTATTGTCGCTCAGATGAATCGGCGGAGTCACCTAGTGCAG | 9390 fluorescence intensity (a.u.)
CATCATCTCCTTCCTACTCGTACACGCTAGGCTTTGCCGCCGGAGTCACCTAGTGCAG | 8250 fluorescence intensity (a.u.)
AATTTTCTCAGTTGTGCATTTCATCGAACACCTTCCTATTCGGAGTCACCTAGTGCAG | 10400 fluorescence intensity (a.u.)
TTGTTGACCCATTTTTCCACTCGTCACCGTGTTTCTGCTGCGGAGTCACCTAGTGCAG | 12700 fluorescence intensity (a.u.)
CTAACCTGCCCGAGTTTGCCTGATTGCTTCTCTGTTCCCACGGAGTCACCTAGTGCAG | 8930 fluorescence intensity (a.u.)
ACCTCTAGGGAAGATAGATAGGAGGGGATGGGATATATTGCGGAGTCACCTAGTGCAG | 8110 fluorescence intensity (a.u.)
GGGGAGGGAGATCCATCTAACAGTTCTTTCTTTTTTTTTCCGGAGTCACCTAGTGCAG | 10300 fluorescence intensity (a.u.)
CATTTCATTTCCTACCGTTAATTTCATACTACTTGCGTCCCGGAGTCACCTAGTGCAG | 10600 fluorescence intensity (a.u.)
GGGTAGATTCATCAACTCACTCTTACACCTACATTACTCACGGAGTCACCTAGTGCAG | 11100 fluorescence intensity (a.u.)
TTCTCCACTATCACGACCGTTTGACCAAATCTAATGAGGTCGGAGTCACCTAGTGCAG | 8180 fluorescence intensity (a.u.)
CCTTTGCTACCTCACAGTTCCTTTTTTTTTTGCACGCGCGCGGAGTCACCTAGTGCAG | 8490 fluorescence intensity (a.u.)
CATCATACACTTAGCCATCATCCTATAATGTTCACCGATCCGGAGTCACCTAGTGCAG | 8270 fluorescence intensity (a.u.)
CGATCGTCTCCACCTTTCTTGCTTGTGCCACCAGCTTTATCGGAGTCACCTAGTGCAG | 9070 fluorescence intensity (a.u.)
ATCCATTTATGTCTGTGTATGTTTGGTAGTACTACTTTTGCGGAGTCACCTAGTGCAG | 9080 fluorescence intensity (a.u.)
CTTCTTCTTGTTGTTCCACTCTTATTGTTCATCATCCTCCCGGAGTCACCTAGTGCAG | 9820 fluorescence intensity (a.u.)
GGTTGCGTTGTTGCGGGCGTTGTTGCGGGCGGGCGGTCAGCGGAGTCACCTAGTGCAG | 16600 fluorescence intensity (a.u.)
TCTTGCCAACGTTTGACTGTTCGTTTTATATGAAAATTTTCGGAGTCACCTAGTGCAG | 12400 fluorescence intensity (a.u.)
TTAATTGTTTGCCGTCTGCTAATCTTGATTCTTGCACAAACGGAGTCACCTAGTGCAG | 8120 fluorescence intensity (a.u.)
CACCGCCGCTGCCACCGCACGCACGCCCGCCACTTCGCTGCGGAGTCACCTAGTGCAG | 9290 fluorescence intensity (a.u.)

An excerpt of these results, as a markdown table:

| Sequence | binding signal |
| --- | --- |
| GCACACCGCTTTCATGGGCCACACATGCCATATCCTAATTCGGAGTCACCTAGTGCAG | 10700 fluorescence intensity (a.u.) |
| TAAAGATGTCTTTTGTTGGGTGGGAAATCATTTTCATTTCCGGAGTCACCTAGTGCAG | 13100 fluorescence intensity (a.u.) |
| CCTTATTTTTGTTATGATAACTAATATGTTCAGTGGTTTTCGGAGTCACCTAGTGCAG | 8510 fluorescence intensity (a.u.) |
| TGGGTGGTCAAGATTTATGATATTGCGGTTAAAGAATGTGCGGAGTCACCTAGTGCAG | 9290 fluorescence intensity (a.u.) |
| CGTTTTTGTGTCTTTCATTTGAGGAGGAACTGCGATTCTTCGGAGTCACCTAGTGCAG | 9400 fluorescence intensity (a.u.) |
